Measurements taken from article PMC6626598.
These are yes or no findings as the source states them, for the method shown. In cells and extracts the contact can be indirect. Some results given as binding are weak or reduced against the parent protein; the word gives no strength. For part of these data: Sequences can lack the tags named with a protein.

Legend:
[1] = target: T1, LATS1 (human (in MCF-7 cells)) (UniProt O95835); experiment: co-IP; MCF-7 cells lysed in RIPA buffer with protease and phosphatase inhibitors; extracts pre-cleared, 2 µg of the indicated antibodies and protein G-agarose overnight at 4 °C; Western blot
T1 sequence: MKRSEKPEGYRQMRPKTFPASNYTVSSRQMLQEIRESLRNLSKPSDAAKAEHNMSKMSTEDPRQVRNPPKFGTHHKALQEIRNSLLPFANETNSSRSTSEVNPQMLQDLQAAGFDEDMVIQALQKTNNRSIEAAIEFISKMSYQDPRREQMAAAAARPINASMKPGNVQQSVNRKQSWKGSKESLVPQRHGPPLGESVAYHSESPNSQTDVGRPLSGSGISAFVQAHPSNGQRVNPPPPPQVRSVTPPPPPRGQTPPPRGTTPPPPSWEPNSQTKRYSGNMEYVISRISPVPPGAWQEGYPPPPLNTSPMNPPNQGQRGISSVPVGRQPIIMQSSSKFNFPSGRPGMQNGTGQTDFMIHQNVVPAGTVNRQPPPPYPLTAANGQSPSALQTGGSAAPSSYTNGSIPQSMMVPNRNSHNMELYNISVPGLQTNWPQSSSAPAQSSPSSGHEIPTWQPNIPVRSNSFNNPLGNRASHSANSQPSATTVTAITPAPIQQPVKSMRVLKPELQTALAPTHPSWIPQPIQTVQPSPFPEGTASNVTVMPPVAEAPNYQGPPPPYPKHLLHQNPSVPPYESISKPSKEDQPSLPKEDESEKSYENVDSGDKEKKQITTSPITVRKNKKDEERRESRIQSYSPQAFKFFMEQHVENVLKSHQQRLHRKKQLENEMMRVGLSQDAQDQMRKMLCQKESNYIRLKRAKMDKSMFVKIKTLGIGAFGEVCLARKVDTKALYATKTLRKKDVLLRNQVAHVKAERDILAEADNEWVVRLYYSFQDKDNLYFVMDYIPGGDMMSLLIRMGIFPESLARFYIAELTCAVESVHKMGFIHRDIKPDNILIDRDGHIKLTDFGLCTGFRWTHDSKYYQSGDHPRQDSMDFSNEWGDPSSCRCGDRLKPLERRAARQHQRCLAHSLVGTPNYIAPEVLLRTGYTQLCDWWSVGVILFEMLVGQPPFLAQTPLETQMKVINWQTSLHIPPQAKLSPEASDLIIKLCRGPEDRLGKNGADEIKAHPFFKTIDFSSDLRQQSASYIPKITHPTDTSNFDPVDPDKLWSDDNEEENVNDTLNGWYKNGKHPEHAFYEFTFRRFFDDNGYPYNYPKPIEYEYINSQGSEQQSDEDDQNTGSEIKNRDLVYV

[2] = target: T2, GST-LATS1 deletion mutant, C-terminus (aa 701-1,130) (UniProt O95835); experiment: pull-down; HERC4 co-expressed with GST-LATS1 constructs in MCF-7 cells; GST-tagged bait on GST beads (Pierce GST Protein Interaction Pull-Down Kit), prey sample at 4 °C for at least 1 h; Western blot
T2 sequence: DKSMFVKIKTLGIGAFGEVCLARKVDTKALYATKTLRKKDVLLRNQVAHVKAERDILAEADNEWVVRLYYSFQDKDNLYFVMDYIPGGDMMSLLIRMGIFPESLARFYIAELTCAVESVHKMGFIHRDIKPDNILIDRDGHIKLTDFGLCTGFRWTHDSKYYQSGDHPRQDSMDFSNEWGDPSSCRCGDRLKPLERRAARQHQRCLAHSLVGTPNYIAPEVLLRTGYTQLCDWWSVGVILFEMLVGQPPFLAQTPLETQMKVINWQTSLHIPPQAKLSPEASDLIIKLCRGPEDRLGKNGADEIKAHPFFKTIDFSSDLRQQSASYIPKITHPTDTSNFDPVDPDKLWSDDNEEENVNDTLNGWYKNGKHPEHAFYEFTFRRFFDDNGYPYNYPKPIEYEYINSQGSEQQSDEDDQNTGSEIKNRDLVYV

[3] = target: T3, GST-LATS1 (UniProt O95835); experiment: as above
T3 sequence: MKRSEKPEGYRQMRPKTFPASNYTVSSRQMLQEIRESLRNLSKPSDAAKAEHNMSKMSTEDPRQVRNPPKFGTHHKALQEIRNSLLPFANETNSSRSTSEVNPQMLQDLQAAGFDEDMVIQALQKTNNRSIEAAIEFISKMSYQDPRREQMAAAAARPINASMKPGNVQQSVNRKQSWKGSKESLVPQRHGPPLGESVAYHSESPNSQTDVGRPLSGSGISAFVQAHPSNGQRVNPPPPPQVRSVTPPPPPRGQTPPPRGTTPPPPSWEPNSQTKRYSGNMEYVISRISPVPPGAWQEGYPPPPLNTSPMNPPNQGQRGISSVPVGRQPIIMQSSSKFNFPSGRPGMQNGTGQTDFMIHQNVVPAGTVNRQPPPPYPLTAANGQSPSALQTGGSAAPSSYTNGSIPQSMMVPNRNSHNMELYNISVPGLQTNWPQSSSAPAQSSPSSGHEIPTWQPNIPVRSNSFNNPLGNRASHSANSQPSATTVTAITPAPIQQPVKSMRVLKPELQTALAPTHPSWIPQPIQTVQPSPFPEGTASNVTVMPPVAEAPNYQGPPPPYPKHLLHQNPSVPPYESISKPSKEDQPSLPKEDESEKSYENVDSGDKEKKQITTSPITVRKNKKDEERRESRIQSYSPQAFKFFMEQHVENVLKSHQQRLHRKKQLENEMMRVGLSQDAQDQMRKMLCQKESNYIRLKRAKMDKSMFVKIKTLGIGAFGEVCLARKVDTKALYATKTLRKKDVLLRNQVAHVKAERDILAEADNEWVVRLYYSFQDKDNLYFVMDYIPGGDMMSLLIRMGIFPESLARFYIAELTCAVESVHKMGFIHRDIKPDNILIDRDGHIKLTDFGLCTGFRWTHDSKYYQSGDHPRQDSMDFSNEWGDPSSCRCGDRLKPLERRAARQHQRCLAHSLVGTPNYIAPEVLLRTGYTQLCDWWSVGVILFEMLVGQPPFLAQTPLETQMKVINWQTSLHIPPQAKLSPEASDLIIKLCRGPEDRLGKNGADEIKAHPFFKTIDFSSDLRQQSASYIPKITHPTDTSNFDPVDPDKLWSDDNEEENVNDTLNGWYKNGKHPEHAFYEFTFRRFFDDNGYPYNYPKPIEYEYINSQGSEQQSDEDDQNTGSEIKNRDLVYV

binding [1]	binding [2]	binding [3]	Binder
binds	–	–	HERC4 (enzyme, UniProt Q5GLZ8 1-1057) MLCWGNASFGQLGLGGIDEEIVLEPRKSDFFINKRVRDVGCGLRHTVFVLDDGTVYTCGCNDLGQLGHEKSRKKPEQVVALDAQNIVAVSCGEAHTLALNDKGQVYAWGLDSDGQLGLVGSEECIRVPRNIKSLSDIQIVQVACGYYHSLALSKASEVFCWGQNKYGQLGLGTDCKKQTSPQLLKSLLGIPFMQVAAGGAHSFVLTLSGAIFGWGRNKFGQLGLNDENDRYVPNLLKSLRSQKIVYICCGEDHTAALTKEGGVFTFGAGGYGQLGHNSTSHEINPRKVFELMGSIVTEIACGRQHTSAFVPSSGRIYSFGLGGNGQLGTGSTSNRKSPFTVKGNWYPYNGQCLPDIDSEEYFCVKRIFSGGDQSFSHYSSPQNCGPPDDFRCPNPTKQIWTVNEALIQKWLSYPSGRFPVEIANEIDGTFSSSGCLNGSFLAVSNDDHYRTGTRFSGVDMNAARLLFHKLIQPDHPQISQQVAASLEKNLIPKLTSSLPDVEALRFYLTLPECPLMSDSNNFTTIAIPFGTALVNLEKAPLKVLENWWSVLEPPLFLKIVELFKEVVVHLLKLYKIGIPPSERRIFNSFLHTALKVLEILHRVNEKMGQIIQYDKFYIHEVQELIDIRNDYINWVQQQAYGMDVNHGLTELADIPVTICTYPFVFDAQAKTTLLQTDAVLQMQMAIDQAHRQNVSSLFLPVIESVNPCLILVVRRENIVGDAMEVLRKTKNIDYKKPLKVIFVGEDAVDAGGVRKEFFLLIMRELLDPKYGMFRYYEDSRLIWFSDKTFEDSDLFHLIGVICGLAIYNCTIVDLHFPLALYKKLLKKKPSLDDLKELMPDVGRSMQQLLDYPEDDIEETFCLNFTITVENFGATEVKELVLNGADTAVNKQNRQEFVDAYVDYIFNKSVASLFDAFHAGFHKVCGGKVLLLFQPNELQAMVIGNTNYDWKELEKNTEYKGEYWAEHPTIKIFWEVFHELPLEKKKQFLLFLTGSDRIPILGMKSLKLVIQSTGGGEEYLPVSHTCFNLLDLPKYTEKETLRSKLIQAIDHNEGFSLI
–	binds	binds	HERC4 (expressed from a vector with human HERC4 cDNA) (enzyme, UniProt Q5GLZ8 1-1057) MLCWGNASFGQLGLGGIDEEIVLEPRKSDFFINKRVRDVGCGLRHTVFVLDDGTVYTCGCNDLGQLGHEKSRKKPEQVVALDAQNIVAVSCGEAHTLALNDKGQVYAWGLDSDGQLGLVGSEECIRVPRNIKSLSDIQIVQVACGYYHSLALSKASEVFCWGQNKYGQLGLGTDCKKQTSPQLLKSLLGIPFMQVAAGGAHSFVLTLSGAIFGWGRNKFGQLGLNDENDRYVPNLLKSLRSQKIVYICCGEDHTAALTKEGGVFTFGAGGYGQLGHNSTSHEINPRKVFELMGSIVTEIACGRQHTSAFVPSSGRIYSFGLGGNGQLGTGSTSNRKSPFTVKGNWYPYNGQCLPDIDSEEYFCVKRIFSGGDQSFSHYSSPQNCGPPDDFRCPNPTKQIWTVNEALIQKWLSYPSGRFPVEIANEIDGTFSSSGCLNGSFLAVSNDDHYRTGTRFSGVDMNAARLLFHKLIQPDHPQISQQVAASLEKNLIPKLTSSLPDVEALRFYLTLPECPLMSDSNNFTTIAIPFGTALVNLEKAPLKVLENWWSVLEPPLFLKIVELFKEVVVHLLKLYKIGIPPSERRIFNSFLHTALKVLEILHRVNEKMGQIIQYDKFYIHEVQELIDIRNDYINWVQQQAYGMDVNHGLTELADIPVTICTYPFVFDAQAKTTLLQTDAVLQMQMAIDQAHRQNVSSLFLPVIESVNPCLILVVRRENIVGDAMEVLRKTKNIDYKKPLKVIFVGEDAVDAGGVRKEFFLLIMRELLDPKYGMFRYYEDSRLIWFSDKTFEDSDLFHLIGVICGLAIYNCTIVDLHFPLALYKKLLKKKPSLDDLKELMPDVGRSMQQLLDYPEDDIEETFCLNFTITVENFGATEVKELVLNGADTAVNKQNRQEFVDAYVDYIFNKSVASLFDAFHAGFHKVCGGKVLLLFQPNELQAMVIGNTNYDWKELEKNTEYKGEYWAEHPTIKIFWEVFHELPLEKKKQFLLFLTGSDRIPILGMKSLKLVIQSTGGGEEYLPVSHTCFNLLDLPKYTEKETLRSKLIQAIDHNEGFSLI
